Test results as given in article doi:10.1101/2023.03.08.531704.
These are yes or no findings as the source states them, for the method shown. Binding seen in cells or lysates may run through a third protein. Some entries that bind do so weakly or less than the wild type. Where a sequence is shown, tags or fusion partners need not be part of it.

Target: T1, RRM2-HT (C-terminal fusion of the HaloTag to RRM2) (UniProt P31350)
T1 sequence (chain, HaloTag NanoBRET 618 Ligand on the HaloTag): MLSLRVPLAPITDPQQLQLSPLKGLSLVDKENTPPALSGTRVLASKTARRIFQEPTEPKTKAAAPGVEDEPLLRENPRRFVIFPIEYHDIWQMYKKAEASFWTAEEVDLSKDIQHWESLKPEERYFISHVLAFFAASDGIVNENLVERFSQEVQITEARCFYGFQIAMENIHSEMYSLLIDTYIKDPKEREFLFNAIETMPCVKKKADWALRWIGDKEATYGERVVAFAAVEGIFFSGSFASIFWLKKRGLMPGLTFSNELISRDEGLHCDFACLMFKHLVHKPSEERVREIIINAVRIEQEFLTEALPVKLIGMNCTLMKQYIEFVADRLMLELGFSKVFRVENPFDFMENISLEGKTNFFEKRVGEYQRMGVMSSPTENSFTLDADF
Assay: FRET or BRET

binding: binds
B1: Nluc-PHF6 (N-terminal fusion of the NanoLuc luciferase to full length PHF6) (protein, UniProt Q8IWS0 1-365)
chain: MSSSVEQKKGPTRQRKCGFCKSNRDKECGQLLISENQKVAAHHKCMLFSSALVSSHSDNESLGGFSIEDVQKEIKRGTKLMCSLCHCPGATIGCDVKTCHRTYHYHCALHDKAQIREKPSQGIYMVYCRKHKKTAHNSEADLEESFNEHELEPSSPKSKKKSRKGRPRKTNFKGLSEDTRSTSSHGTDEMESSSYRDRSPHRSSPSDTRPKCGFCHVGEEENEARGKLHIFNAKKAAAHYKCMLFSSGTVQLTTTSRAEFGDFDIKTVLQEIKRGKRMKCTLCSQPGATIGCEIKACVKTYHYHCGVQDKAKYIENMSRGIYKLYCKNHSGNDERDEEDEERESKSRGKVEIDQQQLTQQQLNGN
